Patent US4822778A, “Membrane stabilizing phenoxy-piperidine compounds and pharmaceutical compositions employing such compounds” (Aberg; Gunnar, priority 1988, dated 1989)

Assay: in vivo
Details: mouse, sc

CCN(CC)CC(=O)Nc1c(C)cccc1C [Lidocaine, reference compound]
LD50: 220 mg/kg
